# Source: the supplement of paper PMC8728848
# Some of the results follow.
# Experiments:
# Assay in all cases: glycan array binding signal (z-score within array); higher = stronger binding
# Details in all cases: glycan notation: IUPAC condensed, linker removed
# [1] = target: Fuc(a1-3)GlcNAc
# Procedure, shortened: (§1)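 Arrays were curated from the Consortium for Functional Glycomics database, 3228 in total, and kept only where the protein sequence was available. Binding is expressed as a within-array Z-score. This score was averaged across arrays of the same protein sequence at different concentrations or buffers and across linkers, and negative values can be read as non-binding.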
# [2] = target: Fuc(a1-3)[Gal(b1-4)]Glc6S
# Procedure, shortened: as §1
# [3] = target: Fuc(a1-3)[Gal(b1-4)]GlcNAc
# Procedure, shortened: as §1
# [4] = target: Fuc(a1-3)[Gal(b1-4)]GlcNAc(b1-2)Man
# Procedure, shortened: as §1
# [5] = target: Fuc(a1-3)[Gal(b1-4)]GlcNAc(b1-2)Man(a1-3)[Fuc(a1-3)[Gal(b1-4)]GlcNAc(b1-2)Man(a1-6)]Man(b1-4)GlcNAc(b1-4)GlcNAc
# Procedure, shortened: as §1
# [6] = target: Fuc(a1-3)[Gal(b1-4)]GlcNAc(b1-2)Man(a1-3)[Fuc(a1-3)[Gal(b1-4)]GlcNAc(b1-2)Man(a1-6)]Man(b1-4)GlcNAc(b1-4)[Fuc(a1-6)]GlcNAc
# Procedure, shortened: as §1
# [7] = target: Fuc(a1-3)[Gal(b1-4)]GlcNAc(b1-3)Gal(b1-3)[Fuc(a1-4)]GlcNAc
# Procedure, shortened: as §1
# [8] = target: Fuc(a1-3)[Gal(b1-4)]GlcNAc(b1-3)Gal(b1-4)[Fuc(a1-3)]GlcNAc
# Procedure, shortened: as §1
# [9] = target: Fuc(a1-3)[Gal(b1-4)]GlcNAc(b1-3)Gal(b1-4)[Fuc(a1-3)]GlcNAc(b1-3)Gal(b1-4)[Fuc(a1-3)]GlcNAc
# Procedure, shortened: as §1
# [10] = target: Fuc(a1-3)[Gal(b1-4)]GlcNAc(b1-3)GalNAc
# Procedure, shortened: as §1
# [11] = target: Fuc(a1-3)[Gal(b1-4)]GlcNAc(b1-6)GalNAc
# Procedure, shortened: as §1
# [12] = target: Fuc(a1-3)[Gal(b1-4)]GlcNAc(b1-6)[Gal(b1-3)GlcNAc(b1-3)]Gal(b1-4)Glc
# Procedure, shortened: as §1
# [13] = target: Fuc(a1-3)[Gal(b1-4)]GlcNAc6S
# Procedure, shortened: as §1
# [14] = target: Fuc(a1-3)[Gal3S(b1-4)]Glc
# Procedure, shortened: as §1
# [15] = target: Fuc(a1-3)[Gal3S(b1-4)]GlcNAc
# Procedure, shortened: as §1
# [16] = target: Fuc(a1-3)[Gal3S(b1-4)]GlcNAc6S
# Procedure, shortened: as §1
# [17] = target: Fuc(a1-3)[GalNAc(b1-4)]GlcNAc
# Procedure, shortened: as §1
# [18] = target: Fuc(a1-3)[GalNAc(b1-4)]GlcNAc6S
# Procedure, shortened: as §1
# [19] = target: Fuc(a1-4)GlcNAc
# Procedure, shortened: as §1
# [20] = target: Fuc(b1-3)GlcNAc
# Procedure, shortened: as §1
# [21] = target: Gal(a1-2)Gal
# Procedure, shortened: as §1
# [22] = target: Gal(a1-3)Gal
# Procedure, shortened: as §1
# [23] = target: Gal(a1-3)Gal(b1-3)GlcNAc
# Procedure, shortened: as §1
# [24] = target: Gal(a1-3)Gal(b1-3)GlcNAc(b1-2)Man
# Procedure, shortened: as §1
# [25] = target: Gal(a1-3)Gal(b1-3)GlcNAc(b1-2)Man(a1-3)[Gal(a1-3)Gal(b1-3)GlcNAc(b1-2)Man(a1-6)]Man(b1-4)GlcNAc(b1-4)GlcNAc
# Procedure, shortened: as §1
# [26] = target: Gal(a1-3)Gal(b1-3)GlcNAc(b1-3)GalNAc
# Procedure, shortened: as §1
# [27] = target: Gal(a1-3)Gal(b1-3)GlcNAc(b1-6)GalNAc
# Procedure, shortened: as §1
# [28] = target: Gal(a1-3)Gal(b1-3)[Fuc(a1-4)]GlcNAc(b1-2)Man(a1-3)[Gal(a1-3)Gal(b1-3)[Fuc(a1-4)]GlcNAc(b1-2)Man(a1-6)]Man(b1-4)GlcNAc(b1-4)GlcNAc
# Procedure, shortened: as §1
# [29] = target: Gal(a1-3)Gal(b1-4)Glc
# Procedure, shortened: as §1
# [30] = target: Gal(a1-3)Gal(b1-4)GlcNAc
# Procedure, shortened: as §1
# [31] = target: Gal(a1-3)Gal(b1-4)GlcNAc(b1-2)Man
# Procedure, shortened: as §1
# [32] = target: Gal(a1-3)Gal(b1-4)GlcNAc(b1-2)Man(a1-3)[Gal(a1-3)Gal(b1-4)GlcNAc(b1-2)Man(a1-6)]Man(b1-4)GlcNAc(b1-4)GlcNAc
# Procedure, shortened: as §1
# [33] = target: Gal(a1-3)Gal(b1-4)GlcNAc(b1-3)GalNAc
# Procedure, shortened: as §1
# [34] = target: Gal(a1-3)Gal(b1-4)GlcNAc(b1-6)GalNAc
# Procedure, shortened: as §1
# [35] = target: Gal(a1-3)Gal(b1-4)[Fuc(a1-3)]GlcNAc
# Procedure, shortened: as §1
# [36] = target: Gal(a1-3)Gal(b1-4)[Fuc(a1-3)]GlcNAc(b1-2)Man(a1-3)[Gal(a1-3)Gal(b1-4)[Fuc(a1-3)]GlcNAc(b1-2)Man(a1-6)]Man(b1-4)GlcNAc(b1-4)GlcNAc
# Procedure, shortened: as §1
# [37] = target: Gal(a1-3)GalNAc
# Procedure, shortened: as §1
binder,measurement,setting,value
PX15642A-pgi-501-20-501 (Parabacteroides gingivalis) (protein) CELDRDPEGKDFQQPYTSFVQTKQNRDGLYALLRNTENPRMHFYQELQSDMYCTTITDGNSLAPFVNWDLGILNDHGRADEDEVSGIAGYYFVYNRLNQQANAFVNNTEAALQNQVYKNSTEIANAKSFLAEGKVLQALAIWRLMDRFSFHESVTEVNSGAKDLGVILLKEYNPGYIGPRATKAQCYDYILSRLSEAIEVLPENRESVLYVSRDYAYALRARIYLALGEYGKAAADAKMVVDKYPLIGAADASEFENIYRSDANNPEIIFRGFASATLGSFTATTLNGAAPAGKDIKYNPSAVPFQWVVDLYENEDFRKSVYIAKVVKKDKGYLVNKFLEDKAYRDVQDKPNLKVGARYFSVAEVYLILVESALQTGDTPTAEKYLKALSKARGAEVSVVNMEALQAERTRELIGEGSRLRDMVRWSIPNNHDAFETQPGLEGFANTTPLKAQAPVGFYAYTWEFPQRDRQTNPQLIKNWPI,glycan array binding signal (z-score),[1],-0.538
same,glycan array binding signal (z-score),[2],1.14
same,glycan array binding signal (z-score),[3],-0.142
same,glycan array binding signal (z-score),[4],-0.285
same,glycan array binding signal (z-score),[5],-0.273
same,glycan array binding signal (z-score),[6],0.038
same,glycan array binding signal (z-score),[7],-0.483
same,glycan array binding signal (z-score),[8],-0.691
same,glycan array binding signal (z-score),[9],0.419
same,glycan array binding signal (z-score),[10],-0.744
same,glycan array binding signal (z-score),[11],-0.015
same,glycan array binding signal (z-score),[12],-0.871
same,glycan array binding signal (z-score),[13],0.592
same,glycan array binding signal (z-score),[14],-0.872
same,glycan array binding signal (z-score),[15],-0.194
same,glycan array binding signal (z-score),[16],-0.467
same,glycan array binding signal (z-score),[17],1.08
same,glycan array binding signal (z-score),[18],0.034
same,glycan array binding signal (z-score),[19],2.72
same,glycan array binding signal (z-score),[20],-0.235
same,glycan array binding signal (z-score),[21],-0.319
same,glycan array binding signal (z-score),[22],-0.702
same,glycan array binding signal (z-score),[23],-0.477
same,glycan array binding signal (z-score),[24],-0.409
same,glycan array binding signal (z-score),[25],0.212
same,glycan array binding signal (z-score),[26],-0.112
same,glycan array binding signal (z-score),[27],-0.233
same,glycan array binding signal (z-score),[28],1.34
same,glycan array binding signal (z-score),[29],-0.282
same,glycan array binding signal (z-score),[30],0.4
same,glycan array binding signal (z-score),[31],0.003
same,glycan array binding signal (z-score),[32],-0.319
same,glycan array binding signal (z-score),[33],0.023
same,glycan array binding signal (z-score),[34],0.185
same,glycan array binding signal (z-score),[35],-1.03
same,glycan array binding signal (z-score),[36],1.48
same,glycan array binding signal (z-score),[37],-0.248

# Two entries from above in a different format.
binder | measurement | setting | value
PX15642A-pgi-501-20-501 (Parabacteroides gingivalis) (protein) CELDRDPEGKDFQQPYTSFVQTKQNRDGLYALLRNTENPRMHFYQELQSDMYCTTITDGNSLAPFVNWDLGILNDHGRADEDEVSGIAGYYFVYNRLNQQANAFVNNTEAALQNQVYKNSTEIANAKSFLAEGKVLQALAIWRLMDRFSFHESVTEVNSGAKDLGVILLKEYNPGYIGPRATKAQCYDYILSRLSEAIEVLPENRESVLYVSRDYAYALRARIYLALGEYGKAAADAKMVVDKYPLIGAADASEFENIYRSDANNPEIIFRGFASATLGSFTATTLNGAAPAGKDIKYNPSAVPFQWVVDLYENEDFRKSVYIAKVVKKDKGYLVNKFLEDKAYRDVQDKPNLKVGARYFSVAEVYLILVESALQTGDTPTAEKYLKALSKARGAEVSVVNMEALQAERTRELIGEGSRLRDMVRWSIPNNHDAFETQPGLEGFANTTPLKAQAPVGFYAYTWEFPQRDRQTNPQLIKNWPI | glycan array binding signal (z-score) | [8] | -0.691
same | glycan array binding signal (z-score) | [9] | 0.419
